The results in this text go back to publication PMC10612264, “A novel transcriptional repressor specifically regulates xylanase gene 1 in Trichoderma reesei”.

The target in this data set is T1, XTR1 DBD (Trichoderma reesei QM9414) (UniProt G0RH11).
T1 sequence (looked up, limits assumed): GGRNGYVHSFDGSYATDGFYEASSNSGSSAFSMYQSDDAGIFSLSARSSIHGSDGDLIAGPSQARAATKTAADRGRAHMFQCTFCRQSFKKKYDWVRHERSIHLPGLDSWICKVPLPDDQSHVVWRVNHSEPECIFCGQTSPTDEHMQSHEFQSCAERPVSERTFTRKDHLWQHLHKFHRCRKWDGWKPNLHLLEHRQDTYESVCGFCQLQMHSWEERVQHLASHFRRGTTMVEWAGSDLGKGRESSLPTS
The experiment in a line: EMSA. The following applies: EMSA: 10 mM Tris pH 7.5, 50 mM KCl, 1 mM DTT, 150 ng DNA, 20 C 30 min, 6% native PAGE at 4 C in 0.5x TBE, EtBr; recombinant protein; label: none (EtBr stain); probe letters rebuilt from the primers and the genome.

A negative result means that nothing was seen under these conditions. Tags and fusion partners may be left off the protein sequences shown.

As for “GATCATAGACGCAGCCAGCGACATGCAGTGCAATGTCATGGATGTTTTGTGGGTTACGTTCGTCCCTACAGAGTCACTGGCAGGCTACATGCATGTCATGGTCCCATATCGCCCATTCGACCACCGTCAGCCCAGTACTTGCTCGTGTCAATCTCCGTCAGTCGCGTGTGATCAGACATTCCAACTGGATCTGGGCCAGCCGGGCACTCTTTGCCTTGTCCTGTTTGACAGGTTCAATTTGCTCTGTATGCCACTTCTGTCCAGTCTGTTTAGTGAGCCAGACTGCTGAGACACTCTGAACCGAGGAGCAAGCGCCTCCACAGCCAAGAAGTTGAAGAAGACGGCAGACACCCACACAGTGACCACGAAGCTTTGTCACGCAGTATTGATCCCATCAACCACTAGCAAATCCCTAGACACCCCGAAAGGACTTCAACAGTGACCTAGCAGCAAAGCCGTGAGTCTCGGACGGCCTCTTGTTCAACTCAACCGACCTTCCAAGCTACAAAAACGACAAGGTTGGATGTCTGCCGTTTGCTGCCTCGCCACCAGCTGACTTTAGGCAAAACAGGTCATTGAATCCAGATCGGAGTCGACACTCGCATCCGTGCTCCGGGAGTCACGATCGAGACATGCCGCCCAAGCATGCAACCTGCCCCAGGGTCCGATTATATCCAATTTAGCCGCTGGACAAGCTGCATCCATGCCGCTCATCACCCCCGCAAATCACTTTCGGGTCCCGTCTTCTCCCAGATTGCTTTCATCGGCACTAGACCAATGG (double strand) [Pxyn2b (-1500 to -750)]”, the binding result is given as “no binding”. The value for “TATGCAGAATTCTTCCACATTCAAAACCTCTTCACATCATGATTTGAGCTTTGACTTCAATTCTCTTGATGAAACTCAGACATCATCAAGTGAGGTTGAAAGCGGCTCGTACAGTATCCTCGAAGCTTGGCATTTTGCCTAAAGCACGCCCTCCAGGTATCGGATCAAACGGCATAGGAGTGCCGGAATAGATTGAACGCCACCCGCAATATCGACACAAGCCGGTCCTAGTTAACTGCTGAAATATGGCAGTAATGCATCGAACCCGGCGCTTCGGGCCTCAAGCGGCGCGTTCCCCAGATCTGGGGTGCATCCGGCTAAGATGTCGCATTTAGCCTGCCAATCAAGTCAAGGGGCTTCATGTCGGACTTGCGGAGGATGTTGTATTCCAGTGGGCCGCATCTGCAATCTCATGGAGTTTTACGTAGTTGCTTGAGGCCATTTGCTGCAGAATTGTAGGACTAGTACAGGAGAAGGCCTTGGAGTGCAATGACTTGCCACAGAGGGACAAGCCATGGCCTTCCATTCTTTAACGGCTGAACCTAGTCATCCTTAAACAATGTCCCGGAAATTCCCAGCATGTAACAAATAAAATAGACGATGCACGAGTGTCTTGGTAGATGTAGCTGCTTTCACGGCATTGCGAACTAAGAACGCAGGGGCTACGAAGCCTAGAGCTCCTGTAAGTCT (double strand) [Pxyn1a (-750 to -91)]” was “binds”.
